The target of test [1] is MG10-GST fusion protein (fusion protein of Gln 213 to Ala 231 of human Mpl and GST) (human) (UniProt P40238). The experiment in a line: SPR (Biacore 3000) on immobilized MG10-GST.
For test [2] the target is unchanged. Nature of the test: SPR (Biacore 3000) on immobilized MG10-GST, told again.
Test [3] has the same target. The experiment in a line: affinity column with immobilized MG10-GST, eluted at pH 3.5.

Chains of the proteins cited; added tags and fusions are not shown. Lines headed by an entry give the natural chain unless they say otherwise; changes in a name come on top.
UniProt P40238: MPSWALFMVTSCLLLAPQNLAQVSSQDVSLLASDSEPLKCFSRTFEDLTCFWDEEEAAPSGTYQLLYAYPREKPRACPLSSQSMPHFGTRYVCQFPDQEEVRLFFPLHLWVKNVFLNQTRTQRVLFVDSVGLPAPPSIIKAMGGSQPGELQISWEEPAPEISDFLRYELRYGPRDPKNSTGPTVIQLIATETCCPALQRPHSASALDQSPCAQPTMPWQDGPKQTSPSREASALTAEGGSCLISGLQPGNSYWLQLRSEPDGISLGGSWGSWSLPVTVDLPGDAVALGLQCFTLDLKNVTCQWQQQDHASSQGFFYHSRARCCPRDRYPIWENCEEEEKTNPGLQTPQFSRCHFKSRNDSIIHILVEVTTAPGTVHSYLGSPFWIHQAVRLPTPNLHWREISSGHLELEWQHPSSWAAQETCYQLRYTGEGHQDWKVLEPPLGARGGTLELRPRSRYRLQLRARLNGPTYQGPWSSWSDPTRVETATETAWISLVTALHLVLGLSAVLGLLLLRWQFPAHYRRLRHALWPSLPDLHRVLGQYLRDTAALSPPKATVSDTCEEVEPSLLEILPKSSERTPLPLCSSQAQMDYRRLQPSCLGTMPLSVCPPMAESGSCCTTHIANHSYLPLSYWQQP

No constants are given. Whether binding was seen depends on the method and setting. Some entries that bind do so weakly or less than the wild type.

B1: hVB22B u2-wz4 sc(Fv)2 peak 1 (bivalent scFv-type conformational isomer) (scFv)
chain: QVQLVQSGPEVKKPGASVKVSCKASGYTFTNSWMNWVRQRPGKGLEWIGRIYPGDGETIYNGKFRVRVTITADESTSTAYMQLSSLRSEDTAVYYCARGYDDYSFAYWGQGTTVTVSSGGGGSGGGGSGGGGSDIVMTQSPLSLPVTPGEPASISCRSSKSLLHSNGNTYLYWFLQKPGQSPQLLIYRMSNLASGVPDRFSGSGSGTDFTLKISRVEAEDVGVYYCMQHIEYPFTFGQGTKLEIKGGGGSGGGGSGGGGSQVQLVQSGPEVKKPGASVKVSCKASGYTFTNSWMNWVRQRPGKGLEWIGRIYPGDGETIYNGKFRVRVTITADESTSTAYMQLSSLRSEDTAVYYCARGYDDYSFAYWGQGTTVTVSSGGGGSGGGGSGGGGSDIVMTQSPLSLPVTPGEPASISCRSSKSLLHSNGNTYLYWFLQKPGQSPQLLIYRMSNLASGVPDRFSGSGSGTDFTLKISRVEAEDVGVYYCMQHIEYPFTFGQGTKLEIK
Regarding B1, the binding result in test [1] and in test [2] was “binds” throughout.

B2: hVB22B u2-wz4 (v1) sc(Fv)2 (scFv)
chain: QVQLVQSGPEVKKPGASVKVSCKASGYTFTNSWMNWVRERPGKGLEWIGRIYPGDGETIYNGKFRVRVTITADESTSTAYMQLSSLRSEDTAVYYCARGYDDYSFAYWGQGTTVTVSSGGGGSGGGGSGGGGSDIVMTQSPLSLPVTPGEPASISCRSSKSLLHSNGNTYLYWFLEKPGQSPQLLIYRMSNLASGVPDRFSGSGSGTDFTLKISRVEAEDVGVYYCMQHIEYPFTFGQGTKLEIKGGGGSGGGGSGGGGSQVQLVQSGPEVKKPGASVKVSCKASGYTFTNSWMNWVRKRPGKGLEWIGRIYPGDGETIYNGKFRVRVTITADESTSTAYMQLSSLRSEDTAVYYCARGYDDYSFAYWGQGTTVTVSSGGGGSGGGGSGGGGSDIVMTQSPLSLPVTPGEPASISCRSSKSLLHSNGNTYLYWFLKKPGQSPQLLIYRMSNLASGVPDRFSGSGSGTDFTLKISRVEAEDVGVYYCMQHIEYPFTFGQGTKLEIK
Consider B2, for which the binding result in test [3] was “binds”.

B3: hVB22B u2-wz4 sc(Fv)2 peak 2 (single chain diabody-type conformational isomer) (scFv)
chain: QVQLVQSGPEVKKPGASVKVSCKASGYTFTNSWMNWVRQRPGKGLEWIGRIYPGDGETIYNGKFRVRVTITADESTSTAYMQLSSLRSEDTAVYYCARGYDDYSFAYWGQGTTVTVSSGGGGSGGGGSGGGGSDIVMTQSPLSLPVTPGEPASISCRSSKSLLHSNGNTYLYWFLQKPGQSPQLLIYRMSNLASGVPDRFSGSGSGTDFTLKISRVEAEDVGVYYCMQHIEYPFTFGQGTKLEIKGGGGSGGGGSGGGGSQVQLVQSGPEVKKPGASVKVSCKASGYTFTNSWMNWVRQRPGKGLEWIGRIYPGDGETIYNGKFRVRVTITADESTSTAYMQLSSLRSEDTAVYYCARGYDDYSFAYWGQGTTVTVSSGGGGSGGGGSGGGGSDIVMTQSPLSLPVTPGEPASISCRSSKSLLHSNGNTYLYWFLQKPGQSPQLLIYRMSNLASGVPDRFSGSGSGTDFTLKISRVEAEDVGVYYCMQHIEYPFTFGQGTKLEIK
B3: the binding entry in test [1] and in test [2] was “binds” in each case.

B4: humanized anti-human Mpl antibody hVB22B u2-wz4 sc(Fv)2 (bulk, before separation of the conformational isomers) (scFv)
chain: QVQLVQSGPEVKKPGASVKVSCKASGYTFTNSWMNWVRQRPGKGLEWIGRIYPGDGETIYNGKFRVRVTITADESTSTAYMQLSSLRSEDTAVYYCARGYDDYSFAYWGQGTTVTVSSGGGGSGGGGSGGGGSDIVMTQSPLSLPVTPGEPASISCRSSKSLLHSNGNTYLYWFLQKPGQSPQLLIYRMSNLASGVPDRFSGSGSGTDFTLKISRVEAEDVGVYYCMQHIEYPFTFGQGTKLEIKGGGGSGGGGSGGGGSQVQLVQSGPEVKKPGASVKVSCKASGYTFTNSWMNWVRQRPGKGLEWIGRIYPGDGETIYNGKFRVRVTITADESTSTAYMQLSSLRSEDTAVYYCARGYDDYSFAYWGQGTTVTVSSGGGGSGGGGSGGGGSDIVMTQSPLSLPVTPGEPASISCRSSKSLLHSNGNTYLYWFLQKPGQSPQLLIYRMSNLASGVPDRFSGSGSGTDFTLKISRVEAEDVGVYYCMQHIEYPFTFGQGTKLEIK
For B4, in test [3], the binding entry was “binds”.

B5: hVB22B u2-wz4 (v3) sc(Fv)2 (scFv)
chain: QVQLVQSGPEVKKPGASVKVSCKASGYTFTNSWMNWVRERPGKGLEWIGRIYPGDGETIYNGKFRVRVTITADESTSTAYMQLSSLRSEDTAVYYCARGYDDYSFAYWGQGTTVTVSSGGGGSGGGGSGGGGSDIVMTQSPLSLPVTPGEPASISCRSSKSLLHSNGNTYLYWFLKKPGQSPQLLIYRMSNLASGVPDRFSGSGSGTDFTLKISRVEAEDVGVYYCMQHIEYPFTFGQGTKLEIKGGGGSGGGGSGGGGSQVQLVQSGPEVKKPGASVKVSCKASGYTFTNSWMNWVRKRPGKGLEWIGRIYPGDGETIYNGKFRVRVTITADESTSTAYMQLSSLRSEDTAVYYCARGYDDYSFAYWGQGTTVTVSSGGGGSGGGGSGGGGSDIVMTQSPLSLPVTPGEPASISCRSSKSLLHSNGNTYLYWFLEKPGQSPQLLIYRMSNLASGVPDRFSGSGSGTDFTLKISRVEAEDVGVYYCMQHIEYPFTFGQGTKLEIK
As for B5, the binding result in test [3] is listed as “binds”.

For the origin of these results see patent US20090214535A1.
